Laboratory results published in publication PMC12752606, “METTL10‐Mediated PIAS3 Methylation Links Purine Metabolism to Gastric Cancer Progression” (Advanced Science, 2025).

The chains behind the UniProt entries cited, without tags or fusion partners.
UniProt O75030: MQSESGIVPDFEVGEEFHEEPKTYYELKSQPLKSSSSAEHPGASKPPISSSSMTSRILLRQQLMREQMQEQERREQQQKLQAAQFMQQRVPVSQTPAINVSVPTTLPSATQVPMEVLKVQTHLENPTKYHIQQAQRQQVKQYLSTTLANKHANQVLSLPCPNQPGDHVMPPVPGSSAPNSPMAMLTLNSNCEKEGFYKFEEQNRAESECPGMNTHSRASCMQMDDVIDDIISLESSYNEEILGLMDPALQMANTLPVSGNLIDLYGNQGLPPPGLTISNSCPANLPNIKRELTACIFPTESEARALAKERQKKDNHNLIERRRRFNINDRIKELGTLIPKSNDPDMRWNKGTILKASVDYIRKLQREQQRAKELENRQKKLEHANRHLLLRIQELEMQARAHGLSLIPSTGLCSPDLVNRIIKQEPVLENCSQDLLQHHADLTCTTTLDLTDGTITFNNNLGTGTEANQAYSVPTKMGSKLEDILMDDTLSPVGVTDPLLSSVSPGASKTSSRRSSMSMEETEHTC
UniProt P78317: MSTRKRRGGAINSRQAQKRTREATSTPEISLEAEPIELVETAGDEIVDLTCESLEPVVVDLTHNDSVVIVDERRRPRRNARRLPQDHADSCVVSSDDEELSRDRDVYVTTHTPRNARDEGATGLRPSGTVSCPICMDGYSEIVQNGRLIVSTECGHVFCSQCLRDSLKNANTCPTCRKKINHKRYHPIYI

Target: Flag-MITF (UniProt O75030)
Assay: affinity purification with mass spectrometry; HEK293T transfected with Flag-tagged MITF and HA-vector or HA-METTL10, with the proteasome inhibitor MG132

binding: binds
Substance: RNF4 (from UniProt P78317 1-190) (enzyme)

These are yes or no findings as the source states them, for the method shown. Binding seen in cells or lysates may run through a third protein. These calls come from enrichment with a bait or labelling near it, and not all partners need be listed.
